The results in this text go back to paper PMC8548262.

Amino acid sequences for entries named in this document (tags omitted).
UniProt Q86XN7: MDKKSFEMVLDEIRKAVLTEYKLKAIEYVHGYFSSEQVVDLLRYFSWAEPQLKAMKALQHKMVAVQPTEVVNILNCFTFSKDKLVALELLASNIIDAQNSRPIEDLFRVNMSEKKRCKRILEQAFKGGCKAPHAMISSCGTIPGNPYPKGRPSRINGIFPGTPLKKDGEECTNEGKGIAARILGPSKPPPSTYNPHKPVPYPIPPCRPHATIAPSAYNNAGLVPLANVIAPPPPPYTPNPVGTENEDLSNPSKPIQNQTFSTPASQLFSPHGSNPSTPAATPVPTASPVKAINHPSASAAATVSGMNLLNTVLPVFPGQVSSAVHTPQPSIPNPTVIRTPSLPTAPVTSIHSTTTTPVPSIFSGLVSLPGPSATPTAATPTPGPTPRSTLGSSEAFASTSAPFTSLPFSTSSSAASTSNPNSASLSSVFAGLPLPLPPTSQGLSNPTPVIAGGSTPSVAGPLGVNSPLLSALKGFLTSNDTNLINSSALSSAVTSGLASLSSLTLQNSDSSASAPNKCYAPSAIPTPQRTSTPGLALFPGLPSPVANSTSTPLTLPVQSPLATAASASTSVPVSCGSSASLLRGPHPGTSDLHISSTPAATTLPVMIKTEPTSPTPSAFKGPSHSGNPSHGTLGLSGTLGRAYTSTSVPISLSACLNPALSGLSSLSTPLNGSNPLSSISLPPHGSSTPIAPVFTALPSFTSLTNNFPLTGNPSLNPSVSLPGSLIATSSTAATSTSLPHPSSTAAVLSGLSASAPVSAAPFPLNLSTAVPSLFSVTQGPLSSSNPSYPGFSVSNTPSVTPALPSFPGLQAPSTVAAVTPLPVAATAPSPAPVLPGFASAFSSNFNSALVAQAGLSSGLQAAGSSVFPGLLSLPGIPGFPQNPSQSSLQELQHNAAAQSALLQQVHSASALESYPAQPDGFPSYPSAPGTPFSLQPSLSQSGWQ
UniProt O15550: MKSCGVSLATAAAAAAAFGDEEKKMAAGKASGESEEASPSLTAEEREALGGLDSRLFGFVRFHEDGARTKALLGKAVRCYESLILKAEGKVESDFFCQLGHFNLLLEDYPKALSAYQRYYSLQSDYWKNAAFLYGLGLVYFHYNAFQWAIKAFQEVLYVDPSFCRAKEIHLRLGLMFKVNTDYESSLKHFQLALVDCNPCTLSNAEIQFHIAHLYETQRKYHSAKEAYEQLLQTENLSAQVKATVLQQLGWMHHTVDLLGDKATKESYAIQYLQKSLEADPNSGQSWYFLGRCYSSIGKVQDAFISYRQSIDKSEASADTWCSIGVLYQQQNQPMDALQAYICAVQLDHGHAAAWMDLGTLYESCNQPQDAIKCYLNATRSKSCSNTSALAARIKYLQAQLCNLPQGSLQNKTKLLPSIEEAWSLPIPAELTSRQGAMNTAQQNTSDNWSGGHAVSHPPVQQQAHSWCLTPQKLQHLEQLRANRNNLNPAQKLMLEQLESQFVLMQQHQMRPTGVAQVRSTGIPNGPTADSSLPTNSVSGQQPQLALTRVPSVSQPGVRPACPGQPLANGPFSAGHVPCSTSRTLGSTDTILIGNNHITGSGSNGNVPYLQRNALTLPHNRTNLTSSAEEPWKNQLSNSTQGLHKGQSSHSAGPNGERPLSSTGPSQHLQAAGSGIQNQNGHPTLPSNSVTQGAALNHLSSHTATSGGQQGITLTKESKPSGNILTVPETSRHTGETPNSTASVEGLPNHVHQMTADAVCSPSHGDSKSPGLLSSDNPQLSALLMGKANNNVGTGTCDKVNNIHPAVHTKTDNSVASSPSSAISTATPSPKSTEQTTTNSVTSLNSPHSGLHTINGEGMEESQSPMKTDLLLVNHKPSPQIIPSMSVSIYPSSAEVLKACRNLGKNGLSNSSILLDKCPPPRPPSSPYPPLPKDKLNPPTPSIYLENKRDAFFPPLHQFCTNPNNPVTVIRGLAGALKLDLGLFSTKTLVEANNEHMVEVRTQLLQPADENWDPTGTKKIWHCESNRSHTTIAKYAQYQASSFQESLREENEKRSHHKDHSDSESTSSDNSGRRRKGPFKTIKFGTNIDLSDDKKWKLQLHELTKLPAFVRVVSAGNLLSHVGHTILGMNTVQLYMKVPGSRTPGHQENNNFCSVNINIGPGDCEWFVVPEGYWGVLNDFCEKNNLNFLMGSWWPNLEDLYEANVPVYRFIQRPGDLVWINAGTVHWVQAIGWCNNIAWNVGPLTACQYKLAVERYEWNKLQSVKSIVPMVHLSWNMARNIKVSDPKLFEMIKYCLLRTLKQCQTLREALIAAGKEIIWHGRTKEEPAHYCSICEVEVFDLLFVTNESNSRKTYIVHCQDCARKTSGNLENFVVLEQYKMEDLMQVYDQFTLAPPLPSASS
UniProt O43151: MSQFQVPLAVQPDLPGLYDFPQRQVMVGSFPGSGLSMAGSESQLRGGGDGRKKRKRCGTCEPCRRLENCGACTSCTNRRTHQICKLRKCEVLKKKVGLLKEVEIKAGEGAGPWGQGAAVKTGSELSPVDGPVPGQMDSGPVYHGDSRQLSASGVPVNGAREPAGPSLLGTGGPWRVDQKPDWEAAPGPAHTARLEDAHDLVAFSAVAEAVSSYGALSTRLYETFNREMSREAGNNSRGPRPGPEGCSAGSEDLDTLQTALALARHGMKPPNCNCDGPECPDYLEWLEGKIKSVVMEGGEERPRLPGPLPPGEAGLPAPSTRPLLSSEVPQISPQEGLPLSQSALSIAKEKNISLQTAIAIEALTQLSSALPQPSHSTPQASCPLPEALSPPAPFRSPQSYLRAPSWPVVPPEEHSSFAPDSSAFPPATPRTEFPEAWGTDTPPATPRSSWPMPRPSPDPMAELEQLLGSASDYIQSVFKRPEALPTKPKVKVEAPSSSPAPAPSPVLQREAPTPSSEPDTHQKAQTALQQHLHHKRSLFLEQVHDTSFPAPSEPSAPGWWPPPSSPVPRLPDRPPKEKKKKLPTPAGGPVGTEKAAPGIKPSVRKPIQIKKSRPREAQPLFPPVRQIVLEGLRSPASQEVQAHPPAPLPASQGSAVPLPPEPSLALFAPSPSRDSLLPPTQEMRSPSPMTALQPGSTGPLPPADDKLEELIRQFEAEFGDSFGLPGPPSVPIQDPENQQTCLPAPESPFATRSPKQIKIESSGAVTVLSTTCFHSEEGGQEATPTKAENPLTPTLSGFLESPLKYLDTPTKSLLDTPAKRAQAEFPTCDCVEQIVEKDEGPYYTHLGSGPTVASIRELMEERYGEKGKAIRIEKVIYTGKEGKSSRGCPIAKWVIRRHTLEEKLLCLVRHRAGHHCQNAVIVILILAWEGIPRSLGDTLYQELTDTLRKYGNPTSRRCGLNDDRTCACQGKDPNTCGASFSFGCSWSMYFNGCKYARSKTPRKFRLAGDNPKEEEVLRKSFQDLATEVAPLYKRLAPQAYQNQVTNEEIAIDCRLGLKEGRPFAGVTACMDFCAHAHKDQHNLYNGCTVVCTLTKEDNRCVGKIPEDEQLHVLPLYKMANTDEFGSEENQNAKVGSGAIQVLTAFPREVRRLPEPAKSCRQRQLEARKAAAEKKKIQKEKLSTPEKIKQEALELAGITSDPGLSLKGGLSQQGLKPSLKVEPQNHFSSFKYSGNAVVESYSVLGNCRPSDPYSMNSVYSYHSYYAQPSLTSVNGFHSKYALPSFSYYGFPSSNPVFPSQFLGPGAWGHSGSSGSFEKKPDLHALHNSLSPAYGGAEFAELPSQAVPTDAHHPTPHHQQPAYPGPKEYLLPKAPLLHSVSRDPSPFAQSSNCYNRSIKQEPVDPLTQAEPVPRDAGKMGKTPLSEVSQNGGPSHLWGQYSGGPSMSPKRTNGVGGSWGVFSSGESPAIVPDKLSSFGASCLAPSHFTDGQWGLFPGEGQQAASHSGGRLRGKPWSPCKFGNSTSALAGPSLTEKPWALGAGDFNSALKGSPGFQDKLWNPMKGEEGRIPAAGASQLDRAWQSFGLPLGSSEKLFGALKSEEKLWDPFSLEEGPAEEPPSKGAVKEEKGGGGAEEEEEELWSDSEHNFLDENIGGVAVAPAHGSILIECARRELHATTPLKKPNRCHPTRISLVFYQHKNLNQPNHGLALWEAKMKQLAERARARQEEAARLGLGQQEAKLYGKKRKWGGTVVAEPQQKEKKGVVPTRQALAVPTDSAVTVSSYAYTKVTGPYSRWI

Results are given in words; binding and its absence hold for the method and conditions named. Binding seen in cells or lysates may run through a third protein. These calls come from enrichment with a bait or labelling near it, and not all partners need be listed.

For one assay, the target named is FLAG-PROSER1 (UniProt Q86XN7). Nature of the assay: affinity purification with mass spectrometry; overexpressed FLAG-PROSER1 purified by FLAG IP from HEK293 cells, mass spectrometry.
Another assay deals with FLAG-UTX (UniProt O15550). Nature of the assay: affinity purification with mass spectrometry; FLAG-UTX purified by FLAG IP from HEK293 cells, mass spectrometry of the eluate.

TET3 (from UniProt O43151 1-1795): in the assay with FLAG-PROSER1, the binding result is on record as “binds”.

B1: OGT (enzyme, UniProt O15294 1-1046)
chain: MASSVGNVADSTEPTKRMLSFQGLAELAHREYQAGDFEAAERHCMQLWRQEPDNTGVLLLLSSIHFQCRRLDRSAHFSTLAIKQNPLLAEAYSNLGNVYKERGQLQEAIEHYRHALRLKPDFIDGYINLAAALVAAGDMEGAVQAYVSALQYNPDLYCVRSDLGNLLKALGRLEEAKACYLKAIETQPNFAVAWSNLGCVFNAQGEIWLAIHHFEKAVTLDPNFLDAYINLGNVLKEARIFDRAVAAYLRALSLSPNHAVVHGNLACVYYEQGLIDLAIDTYRRAIELQPHFPDAYCNLANALKEKGSVAEAEDCYNTALRLCPTHADSLNNLANIKREQGNIEEAVRLYRKALEVFPEFAAAHSNLASVLQQQGKLQEALMHYKEAIRISPTFADAYSNMGNTLKEMQDVQGALQCYTRAIQINPAFADAHSNLASIHKDSGNIPEAIASYRTALKLKPDFPDAYCNLAHCLQIVCDWTDYDERMKKLVSIVADQLEKNRLPSVHPHHSMLYPLSHGFRKAIAERHGNLCLDKINVLHKPPYEHPKDLKLSDGRLRVGYVSSDFGNHPTSHLMQSIPGMHNPDKFEVFCYALSPDDGTNFRVKVMAEANHFIDLSQIPCNGKAADRIHQDGIHILVNMNGYTKGARNELFALRPAPIQAMWLGYPGTSGALFMDYIITDQETSPAEVAEQYSEKLAYMPHTFFIGDHANMFPHLKKKAVIDFKSNGHIYDNRIVLNGIDLKAFLDSLPDVKIVKMKCPDGGDNADSSNTALNMPVIPMNTIAEAVIEMINRGQIQITINGFSISNGLATTQINNKAATGEEVPRTIIVTTRSQYGLPEDAIVYCNFNQLYKIDPSTLQMWANILKRVPNSVLWLLRFPAVGEPNIQQYAQNMGLPQNRIIFSPVAPKEEHVRRGQLADVCLDTPLCNGHTTGMDVLWAGTPMVTMPGETLASRVAASQLTCLGCLELIAKNRQEYEDIAVKLGTDLEYLKKVRGKVWKQRISSPLFNTKQYTMELERLYLQMWEHYAAGNKPDHMIKPVEVTESA
Consider B1, for which the binding entry with FLAG-PROSER1 and in the assay with FLAG-UTX was “binds” throughout.
